Laboratory results published in PMC8274477.
These are yes or no findings as the source states them, for the method shown. Some results given as binding are weak or reduced against the parent protein; the word gives no strength.

Chains of the proteins cited; added tags and fusions are not shown.
UniProt P0CG20: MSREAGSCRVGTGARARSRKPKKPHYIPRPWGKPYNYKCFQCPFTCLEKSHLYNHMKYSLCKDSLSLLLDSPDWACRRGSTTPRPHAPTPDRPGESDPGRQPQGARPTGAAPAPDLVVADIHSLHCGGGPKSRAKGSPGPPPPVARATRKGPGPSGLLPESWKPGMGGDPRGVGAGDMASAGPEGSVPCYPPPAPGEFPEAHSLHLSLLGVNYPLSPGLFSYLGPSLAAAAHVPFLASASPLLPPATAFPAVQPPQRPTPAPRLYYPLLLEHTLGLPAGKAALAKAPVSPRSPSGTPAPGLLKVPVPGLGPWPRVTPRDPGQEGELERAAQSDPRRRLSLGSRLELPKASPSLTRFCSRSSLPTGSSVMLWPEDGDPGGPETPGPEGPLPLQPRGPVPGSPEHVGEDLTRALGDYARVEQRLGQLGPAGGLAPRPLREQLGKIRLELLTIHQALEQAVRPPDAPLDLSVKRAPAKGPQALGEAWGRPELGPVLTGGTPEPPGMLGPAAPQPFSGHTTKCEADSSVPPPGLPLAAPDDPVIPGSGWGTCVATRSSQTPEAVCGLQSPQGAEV

How the values were obtained:
Test in all cases: peptide or protein array; HuProt human proteome microarray; 5 ug/5 ml biotin-labelled LUBAC or OTULIN in solution, 1 h at room temperature; Cy5-streptavidin, scanned at 635 nm; BSA as negative control; hits: Z-score >= 3 and I_(Mean_Ratio) >= 1.4; both purified
[1] = target: T1, PYCRL (human) (UniProt Q53H96)
T1 sequence: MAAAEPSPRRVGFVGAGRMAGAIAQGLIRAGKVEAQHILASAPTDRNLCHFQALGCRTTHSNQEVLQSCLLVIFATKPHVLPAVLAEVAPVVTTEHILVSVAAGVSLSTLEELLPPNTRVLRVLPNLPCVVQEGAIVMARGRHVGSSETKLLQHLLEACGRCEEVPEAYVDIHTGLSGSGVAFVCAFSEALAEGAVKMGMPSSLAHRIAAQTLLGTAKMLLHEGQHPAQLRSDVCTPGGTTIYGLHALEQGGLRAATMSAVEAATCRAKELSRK

[2] = target: PRR35 (human) (UniProt P0CG20)
[3] = target: T2, SORD (human) (UniProt Q00796)
T2 sequence: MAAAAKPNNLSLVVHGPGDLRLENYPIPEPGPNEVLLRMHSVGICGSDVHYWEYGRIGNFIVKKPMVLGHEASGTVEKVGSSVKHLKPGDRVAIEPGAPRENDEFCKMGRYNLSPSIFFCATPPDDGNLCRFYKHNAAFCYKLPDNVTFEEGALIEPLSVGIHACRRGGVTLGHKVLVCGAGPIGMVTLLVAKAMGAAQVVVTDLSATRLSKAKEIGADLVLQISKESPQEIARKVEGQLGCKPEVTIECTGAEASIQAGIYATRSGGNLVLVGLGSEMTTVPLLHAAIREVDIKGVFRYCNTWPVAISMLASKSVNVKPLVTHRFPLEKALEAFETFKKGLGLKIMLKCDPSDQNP

[4] = target: T3, LOR (human) (UniProt P23490)
T3 sequence: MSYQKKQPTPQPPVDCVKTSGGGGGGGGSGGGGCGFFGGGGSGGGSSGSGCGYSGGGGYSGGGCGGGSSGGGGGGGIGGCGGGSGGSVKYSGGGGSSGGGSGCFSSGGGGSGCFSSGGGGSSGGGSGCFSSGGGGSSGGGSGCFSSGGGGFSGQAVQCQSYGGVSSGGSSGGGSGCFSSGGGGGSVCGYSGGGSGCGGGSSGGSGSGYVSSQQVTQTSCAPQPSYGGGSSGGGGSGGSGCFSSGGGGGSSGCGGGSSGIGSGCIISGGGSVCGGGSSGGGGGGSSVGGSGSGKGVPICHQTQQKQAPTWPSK

[5] = target: T4, SPATC1 (human) (UniProt Q76KD6)
T4 sequence: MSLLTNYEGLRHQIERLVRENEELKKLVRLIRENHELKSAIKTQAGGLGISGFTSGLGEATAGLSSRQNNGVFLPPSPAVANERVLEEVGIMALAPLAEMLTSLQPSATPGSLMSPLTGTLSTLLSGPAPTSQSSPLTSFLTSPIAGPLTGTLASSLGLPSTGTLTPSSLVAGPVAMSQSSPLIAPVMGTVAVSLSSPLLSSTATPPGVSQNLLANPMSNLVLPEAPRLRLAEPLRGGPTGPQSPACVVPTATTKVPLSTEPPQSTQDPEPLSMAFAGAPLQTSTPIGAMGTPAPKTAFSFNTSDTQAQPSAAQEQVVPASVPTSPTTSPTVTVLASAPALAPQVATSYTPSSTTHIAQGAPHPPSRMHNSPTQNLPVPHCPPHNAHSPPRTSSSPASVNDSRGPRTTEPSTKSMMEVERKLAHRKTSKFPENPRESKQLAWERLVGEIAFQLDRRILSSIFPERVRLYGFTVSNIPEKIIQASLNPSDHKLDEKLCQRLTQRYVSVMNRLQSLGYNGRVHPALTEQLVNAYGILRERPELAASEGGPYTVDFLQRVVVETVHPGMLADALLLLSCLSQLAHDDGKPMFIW

Measured: binding

linear ubiquitin chain assembly complex (LUBAC), purified as HIS-tagged HOIP with the subunit HOIL-1, biotin-labelled (from UniProt Q96EP0 1-1072; Q9BYM8 1-510)
binds: all assays above
